{
  "source": "patent US12115167B2",
  "about": "(Woolsey Pharmaceuticals, Inc., priority 2022, dated 2024)",
  "key": {"[1]": {"assay": "Tasting of fasudil formulations by subjects / panel of tasters (bitterness, palatability)", "conditions": "tasted by subjects or panel, in words"}, "[2]": {"assay": "Bitterness rank 1 to 10 of fasudil stock solution with bitterness masking agents", "conditions": "for Rank#: Bitterness rank 1 to 10, 10 being most bitter"}, "[3]": {"assay": "Taste threshold concentration", "conditions": "first taste-tester"}, "[4]": {"conditions": "agent added to 3.0 mL of 16 mg/mL fasudil stock solution (Formulation 35A)"}, "[5]": {"conditions": "five amounts of agent (about 51-210 mg) in about 2.1 g of 16 mg/mL fasudil stock solution"}},
  "note": "Where a name gives a salt, the structure may show the parent alone.",
  "data": [
    {"compound": "O=S(=O)(c1cccc2c(O)nccc12)N1CCCNCC1", "note": "[hydroxyfasudil]", "values": [
      {"measurement": "taste / palatability on tasting", "setting": "[1]", "value": "highly aversive numbing and bitter taste"}
    ]},
    {"compound": "Sulfobutyl ether betacyclodextrin [SBEBCD]", "values": [
      {"measurement": "Rank#", "setting": "[2]; [4]", "value": 3},
      {"measurement": "Rank", "setting": "[2]; Bitterness rank 1 to 10, five amounts of agent (about 51-210 mg) in about 2.1 g stock solution, same rank for all", "value": 3},
      {"measurement": "Observation", "setting": "[2]; [4]", "value": "Less bitter, Astringent"},
      {"measurement": "Observation", "setting": "[2]; [5]", "value": "slightly bitter"}
    ]},
    {"compound": "[Cl-].[Na+]", "note": "[NaCl, Sodium chloride]", "values": [
      {"measurement": "Observation", "setting": "[2]; [4]", "value": "Salty, less bitter"}
    ]},
    {"compound": "O=S(=O)(c1cccc2cnccc12)N1CCCNCC1", "note": "[fasudil, hexahydro-1-(5-isoquinolinesulfonyl)-1H-1,4-diazepine monohydrochloride hemihydrate]", "values": [
      {"measurement": "Taste Perception", "setting": "[3]; fasudil aqueous composition 0.05 mg/ml", "value": "Imperceptible"},
      {"measurement": "Taste Perception", "setting": "[3]; fasudil aqueous composition 0.1 mg/ml", "value": "Mild Taste"},
      {"measurement": "Taste Perception", "setting": "[3]; fasudil aqueous composition 0.5 mg/ml", "value": "Mild taste"},
      {"measurement": "Taste Perception", "setting": "[3]; fasudil aqueous composition 1.0 mg/ml", "value": "Perceptible, but tolerable"},
      {"measurement": "Taste Perception", "setting": "[3]; fasudil aqueous composition 1.5 mg/ml", "value": "Yuck"},
      {"measurement": "taste / palatability on tasting", "setting": "[1]; listed as fasudil hydrochloride, monohydrochloride hemihydrate", "value": "highly aversive numbing and bitter taste"},
      {"measurement": "taste / palatability on tasting", "setting": "[1]; monohydrochloride hemihydrate", "value": "very aversive, bitter taste"}
    ]},
    {"compound": "Cn1c(=O)c2c(ncn2C)n(C)c1=O", "note": "[Caffeine]", "values": [
      {"measurement": "Observation", "setting": "[2]; [4]", "value": "Very bitter"}
    ]},
    {"compound": "CC(O)COC[C@H]1O[C@@H]2O[C@H]3[C@H](O)[C@@H](O)[C@@H](O[C@H]4[C@H](O)[C@@H](O)[C@@H](O[C@H]5[C@H](O)[C@@H](O)[C@@H](O[C@H]6[C@H](O)[C@@H](O)[C@@H](O[C@H]7[C@H](O)[C@@H](O)[C@@H](O[C@H]8[C@H](O)[C@@H](O)[C@@H](O[C@H]1[C@H](O)[C@H]2O)O[C@@H]8COCC(C)O)O[C@@H]7COCC(C)O)O[C@@H]6COCC(C)O)O[C@@H]5COCC(C)O)O[C@@H]4COCC(C)O)O[C@@H]3COCC(C)O", "note": "(stereo partly drawn) [HPBCD, Hydroxypropyl betacyclodexrin]", "values": [
      {"measurement": "Rank#", "setting": "[2]; [4]", "value": 7}
    ]},
    {"compound": "CC1CCC(C(C)C)C(O)C1", "note": "(stereo not drawn) [Menthol]", "values": [
      {"measurement": "Rank#", "setting": "[2]; [4]", "value": 7},
      {"measurement": "Observation", "setting": "[2]; [4]", "value": "Moderately bitter"}
    ]},
    {"compound": "NCC(=O)O", "note": "[Glycine]", "values": [
      {"measurement": "Rank#", "setting": "[2]; [4]", "value": 2},
      {"measurement": "Observation", "setting": "[2]; [4]", "value": "Less bitter"},
      {"measurement": "Observation", "setting": "[2]; [5]", "value": "All were slightly bitter, tolerable, Rank"},
      {"measurement": "Observation", "setting": "[2]; five amounts of agent (about 51-210 mg) in about 2.1 g of 16 mg/mL fasudil stock solution, listed as glycine", "value": "some bitterness lingered in the mouth after rinsing with water"}
    ]}
  ]
}
